Laboratory results: the supplement of paper PMC10849652
This is one part of the list.

Amino acid sequences for entries named in this document (tags omitted). A change or cut given only in a name is not applied to a line headed by its entry.
UniProt P57768: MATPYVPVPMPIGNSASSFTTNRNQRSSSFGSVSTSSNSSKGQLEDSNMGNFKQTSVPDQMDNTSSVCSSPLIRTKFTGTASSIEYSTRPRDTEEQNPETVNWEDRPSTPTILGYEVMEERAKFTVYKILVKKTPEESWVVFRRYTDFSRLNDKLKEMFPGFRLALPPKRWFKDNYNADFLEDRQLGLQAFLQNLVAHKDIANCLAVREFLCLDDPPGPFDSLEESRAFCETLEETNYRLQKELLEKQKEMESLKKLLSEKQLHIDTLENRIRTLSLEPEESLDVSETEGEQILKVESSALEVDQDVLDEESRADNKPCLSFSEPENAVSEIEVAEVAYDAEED
UniProt Q6J4K2: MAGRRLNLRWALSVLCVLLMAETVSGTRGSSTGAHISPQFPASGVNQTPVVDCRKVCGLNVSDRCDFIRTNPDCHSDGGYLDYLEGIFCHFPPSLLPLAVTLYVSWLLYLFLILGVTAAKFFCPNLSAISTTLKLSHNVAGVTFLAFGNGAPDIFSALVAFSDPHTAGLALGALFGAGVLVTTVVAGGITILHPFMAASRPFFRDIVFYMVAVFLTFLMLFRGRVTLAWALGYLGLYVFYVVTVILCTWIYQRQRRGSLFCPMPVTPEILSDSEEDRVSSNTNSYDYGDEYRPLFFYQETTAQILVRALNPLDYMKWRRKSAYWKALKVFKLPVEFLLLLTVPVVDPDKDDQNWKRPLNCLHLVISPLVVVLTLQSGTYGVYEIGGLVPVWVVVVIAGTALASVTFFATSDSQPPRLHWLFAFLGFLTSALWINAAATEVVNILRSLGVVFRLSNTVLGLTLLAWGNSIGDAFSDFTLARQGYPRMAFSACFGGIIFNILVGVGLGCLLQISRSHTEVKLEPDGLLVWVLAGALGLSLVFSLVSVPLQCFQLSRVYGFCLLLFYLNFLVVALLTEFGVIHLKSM
UniProt Q9BT81: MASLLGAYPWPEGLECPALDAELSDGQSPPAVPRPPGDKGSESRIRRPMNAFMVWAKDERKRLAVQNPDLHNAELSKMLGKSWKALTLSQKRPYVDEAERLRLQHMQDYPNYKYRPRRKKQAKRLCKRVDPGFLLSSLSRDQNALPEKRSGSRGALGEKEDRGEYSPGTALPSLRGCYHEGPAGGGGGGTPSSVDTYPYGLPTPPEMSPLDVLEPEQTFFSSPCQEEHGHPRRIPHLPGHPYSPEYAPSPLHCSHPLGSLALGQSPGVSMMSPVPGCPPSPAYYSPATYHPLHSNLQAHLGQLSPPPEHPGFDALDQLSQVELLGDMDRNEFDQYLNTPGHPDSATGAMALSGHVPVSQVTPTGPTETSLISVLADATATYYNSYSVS
UniProt P28370, whole entry, looked up: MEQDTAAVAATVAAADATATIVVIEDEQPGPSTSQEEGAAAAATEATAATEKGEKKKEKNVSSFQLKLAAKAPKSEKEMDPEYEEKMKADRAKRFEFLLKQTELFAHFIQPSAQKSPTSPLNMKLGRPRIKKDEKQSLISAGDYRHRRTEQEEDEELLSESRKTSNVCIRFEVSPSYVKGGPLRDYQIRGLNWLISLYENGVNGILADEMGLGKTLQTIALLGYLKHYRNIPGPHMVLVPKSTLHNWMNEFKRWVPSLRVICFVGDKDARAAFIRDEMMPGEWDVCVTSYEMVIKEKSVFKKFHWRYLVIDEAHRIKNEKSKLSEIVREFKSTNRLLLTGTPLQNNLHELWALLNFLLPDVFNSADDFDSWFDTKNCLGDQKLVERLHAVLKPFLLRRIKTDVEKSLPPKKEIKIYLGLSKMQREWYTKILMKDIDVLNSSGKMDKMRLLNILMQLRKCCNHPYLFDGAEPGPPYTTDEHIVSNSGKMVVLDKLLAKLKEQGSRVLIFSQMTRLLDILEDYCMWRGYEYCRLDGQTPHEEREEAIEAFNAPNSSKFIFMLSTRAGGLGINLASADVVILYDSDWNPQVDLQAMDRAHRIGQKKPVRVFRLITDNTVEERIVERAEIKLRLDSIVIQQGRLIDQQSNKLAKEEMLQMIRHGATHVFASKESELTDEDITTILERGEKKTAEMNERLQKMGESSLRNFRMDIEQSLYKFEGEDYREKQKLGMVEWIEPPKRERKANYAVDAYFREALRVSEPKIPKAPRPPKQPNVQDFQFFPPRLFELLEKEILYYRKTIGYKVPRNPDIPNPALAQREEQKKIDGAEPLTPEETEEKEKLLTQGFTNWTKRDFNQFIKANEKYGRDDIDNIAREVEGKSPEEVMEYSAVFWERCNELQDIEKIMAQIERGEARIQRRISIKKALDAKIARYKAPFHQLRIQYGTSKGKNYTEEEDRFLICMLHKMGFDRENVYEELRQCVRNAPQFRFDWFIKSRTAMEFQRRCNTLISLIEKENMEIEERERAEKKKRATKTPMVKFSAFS
UniProt Q7Z3B0: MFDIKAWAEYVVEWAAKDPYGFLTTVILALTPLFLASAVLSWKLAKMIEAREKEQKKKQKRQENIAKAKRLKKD
UniProt Q9BX66: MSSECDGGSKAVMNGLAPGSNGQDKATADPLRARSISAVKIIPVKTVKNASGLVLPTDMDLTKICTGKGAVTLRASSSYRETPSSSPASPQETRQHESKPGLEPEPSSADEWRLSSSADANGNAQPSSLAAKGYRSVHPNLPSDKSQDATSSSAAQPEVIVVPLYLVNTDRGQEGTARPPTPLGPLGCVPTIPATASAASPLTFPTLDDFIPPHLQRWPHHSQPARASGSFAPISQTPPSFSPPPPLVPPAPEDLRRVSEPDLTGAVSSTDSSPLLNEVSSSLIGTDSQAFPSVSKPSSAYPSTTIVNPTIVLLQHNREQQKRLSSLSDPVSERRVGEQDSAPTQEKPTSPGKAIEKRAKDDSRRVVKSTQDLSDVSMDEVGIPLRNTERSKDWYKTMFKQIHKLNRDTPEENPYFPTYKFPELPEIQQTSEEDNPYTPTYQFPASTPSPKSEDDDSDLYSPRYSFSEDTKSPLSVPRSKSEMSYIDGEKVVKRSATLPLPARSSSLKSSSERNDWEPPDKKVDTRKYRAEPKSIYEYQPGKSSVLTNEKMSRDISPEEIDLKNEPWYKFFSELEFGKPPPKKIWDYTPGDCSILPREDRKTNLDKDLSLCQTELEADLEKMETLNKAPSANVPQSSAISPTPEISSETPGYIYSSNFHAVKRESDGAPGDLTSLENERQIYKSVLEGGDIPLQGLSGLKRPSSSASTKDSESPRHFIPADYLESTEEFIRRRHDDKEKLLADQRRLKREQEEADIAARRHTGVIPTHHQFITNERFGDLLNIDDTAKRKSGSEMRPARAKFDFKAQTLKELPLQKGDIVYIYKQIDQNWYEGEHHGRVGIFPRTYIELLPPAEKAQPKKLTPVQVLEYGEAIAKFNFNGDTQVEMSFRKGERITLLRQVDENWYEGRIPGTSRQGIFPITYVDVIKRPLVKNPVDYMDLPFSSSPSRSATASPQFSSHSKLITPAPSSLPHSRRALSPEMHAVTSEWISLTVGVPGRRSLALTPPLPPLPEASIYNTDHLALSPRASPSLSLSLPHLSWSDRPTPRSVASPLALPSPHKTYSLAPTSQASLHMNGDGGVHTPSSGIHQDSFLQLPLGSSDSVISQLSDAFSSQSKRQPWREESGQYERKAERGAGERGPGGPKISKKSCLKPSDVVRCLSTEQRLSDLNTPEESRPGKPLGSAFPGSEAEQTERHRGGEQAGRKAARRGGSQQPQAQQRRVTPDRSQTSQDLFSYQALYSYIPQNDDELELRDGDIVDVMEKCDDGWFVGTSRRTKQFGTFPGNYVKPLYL
UniProt O60504: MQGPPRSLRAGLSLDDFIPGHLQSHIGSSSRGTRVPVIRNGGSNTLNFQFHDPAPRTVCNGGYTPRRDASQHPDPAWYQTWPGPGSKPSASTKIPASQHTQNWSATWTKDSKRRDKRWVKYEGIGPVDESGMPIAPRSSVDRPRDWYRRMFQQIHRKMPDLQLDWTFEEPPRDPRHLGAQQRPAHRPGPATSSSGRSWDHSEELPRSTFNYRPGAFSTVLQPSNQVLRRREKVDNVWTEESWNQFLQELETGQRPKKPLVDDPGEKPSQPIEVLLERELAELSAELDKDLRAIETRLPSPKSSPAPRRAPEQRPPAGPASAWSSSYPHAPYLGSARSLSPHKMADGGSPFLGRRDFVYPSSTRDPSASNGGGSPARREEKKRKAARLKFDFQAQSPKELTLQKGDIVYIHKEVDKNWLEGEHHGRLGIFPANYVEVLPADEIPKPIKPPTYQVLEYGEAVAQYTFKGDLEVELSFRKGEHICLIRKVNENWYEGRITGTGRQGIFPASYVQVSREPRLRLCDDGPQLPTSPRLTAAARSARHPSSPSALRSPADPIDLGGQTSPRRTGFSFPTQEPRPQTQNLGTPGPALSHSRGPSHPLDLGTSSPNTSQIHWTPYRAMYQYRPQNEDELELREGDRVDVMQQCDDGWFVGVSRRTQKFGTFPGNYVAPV
UniProt Q96BD0: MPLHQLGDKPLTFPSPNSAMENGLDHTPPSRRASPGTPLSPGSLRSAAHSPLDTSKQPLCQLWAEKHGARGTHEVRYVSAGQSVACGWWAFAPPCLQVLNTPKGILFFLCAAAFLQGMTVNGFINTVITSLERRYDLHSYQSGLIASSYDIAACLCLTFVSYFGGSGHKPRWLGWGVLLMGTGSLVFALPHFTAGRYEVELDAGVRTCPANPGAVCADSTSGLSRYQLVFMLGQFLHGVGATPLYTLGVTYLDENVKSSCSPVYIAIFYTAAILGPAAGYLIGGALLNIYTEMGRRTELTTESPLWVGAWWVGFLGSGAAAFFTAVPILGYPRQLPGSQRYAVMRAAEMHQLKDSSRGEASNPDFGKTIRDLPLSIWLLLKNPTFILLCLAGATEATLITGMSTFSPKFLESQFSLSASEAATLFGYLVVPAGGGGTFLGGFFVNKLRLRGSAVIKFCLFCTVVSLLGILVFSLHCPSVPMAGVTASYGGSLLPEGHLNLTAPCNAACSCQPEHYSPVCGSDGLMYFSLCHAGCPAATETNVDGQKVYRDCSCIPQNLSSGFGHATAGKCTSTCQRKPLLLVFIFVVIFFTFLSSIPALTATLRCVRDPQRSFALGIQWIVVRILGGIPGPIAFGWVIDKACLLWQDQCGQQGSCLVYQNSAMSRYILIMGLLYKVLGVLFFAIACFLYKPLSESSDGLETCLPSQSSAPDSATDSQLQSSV
UniProt B2RUZ4: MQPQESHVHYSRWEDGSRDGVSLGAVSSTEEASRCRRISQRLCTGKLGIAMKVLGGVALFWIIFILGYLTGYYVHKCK
UniProt O75391: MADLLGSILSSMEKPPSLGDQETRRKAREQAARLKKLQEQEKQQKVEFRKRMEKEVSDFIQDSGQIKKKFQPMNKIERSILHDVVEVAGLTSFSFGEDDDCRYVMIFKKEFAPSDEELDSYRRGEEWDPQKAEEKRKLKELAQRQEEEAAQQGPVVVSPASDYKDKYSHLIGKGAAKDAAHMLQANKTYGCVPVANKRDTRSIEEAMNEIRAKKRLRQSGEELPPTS
UniProt Q9H4I9: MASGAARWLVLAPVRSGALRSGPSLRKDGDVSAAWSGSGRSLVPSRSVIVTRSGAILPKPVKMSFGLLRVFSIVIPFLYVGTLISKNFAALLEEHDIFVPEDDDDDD
UniProt Q9UMY4: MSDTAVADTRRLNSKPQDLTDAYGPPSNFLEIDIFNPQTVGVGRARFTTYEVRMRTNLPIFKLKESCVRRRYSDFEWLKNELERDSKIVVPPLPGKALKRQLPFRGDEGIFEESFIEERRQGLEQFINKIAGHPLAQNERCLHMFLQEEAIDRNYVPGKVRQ
UniProt O60641: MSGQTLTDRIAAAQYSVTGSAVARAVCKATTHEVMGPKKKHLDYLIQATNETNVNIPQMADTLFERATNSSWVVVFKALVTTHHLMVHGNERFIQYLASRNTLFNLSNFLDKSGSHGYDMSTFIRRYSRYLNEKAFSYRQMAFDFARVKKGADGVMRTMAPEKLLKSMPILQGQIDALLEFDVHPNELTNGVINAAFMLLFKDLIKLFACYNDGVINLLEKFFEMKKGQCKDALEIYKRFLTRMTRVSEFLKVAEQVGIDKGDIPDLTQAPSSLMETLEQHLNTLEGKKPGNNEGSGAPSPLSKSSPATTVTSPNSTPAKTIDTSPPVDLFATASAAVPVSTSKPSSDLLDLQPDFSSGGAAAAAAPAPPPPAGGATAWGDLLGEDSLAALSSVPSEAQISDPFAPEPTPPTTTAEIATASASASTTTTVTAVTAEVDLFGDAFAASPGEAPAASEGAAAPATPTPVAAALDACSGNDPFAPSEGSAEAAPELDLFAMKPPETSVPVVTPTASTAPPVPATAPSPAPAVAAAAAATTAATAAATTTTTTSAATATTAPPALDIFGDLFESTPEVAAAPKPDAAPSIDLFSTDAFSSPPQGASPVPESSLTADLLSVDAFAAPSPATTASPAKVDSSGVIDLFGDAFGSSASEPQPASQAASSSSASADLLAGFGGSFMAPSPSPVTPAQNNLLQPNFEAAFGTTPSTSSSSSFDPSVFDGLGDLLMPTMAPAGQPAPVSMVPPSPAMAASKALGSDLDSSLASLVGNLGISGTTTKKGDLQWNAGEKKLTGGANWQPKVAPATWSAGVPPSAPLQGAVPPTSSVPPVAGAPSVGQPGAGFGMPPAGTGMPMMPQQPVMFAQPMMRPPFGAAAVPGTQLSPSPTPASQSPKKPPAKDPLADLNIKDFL

compound: Cc1ccc(NC(=O)c2ccc(CN3CC[C@H](N(C)C)C3)c(C(F)(F)F)c2)cc1Nc1nccc(-c2cncnc2)n1 [bafetinib]; experiment: log2 fold change, soluble protein after heating vs DMSO (PISA); higher = thermal stabilisation; K562 cells, 10 uM, 30 min; active = over 0.2 and 3.5 SD of the protein, either way, in both replicates (recomputed)
Method in brief: (§1)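 Soluble protein was quantified by TMTpro 16plex LC-MS/MS after channel sums were equalised. It was obtained as the supernatant after 21,000xg for 90 min from pooled aliquots of K562 cells (2×10^6 cells/mL, 10 μM compound, 30 min) heated for 3 min across 48°C-58°C and extracted in PBS with 0.5% NP-40 at 4°C. Thermal stability values are relative to control samples and come from duplicates. They are given as log2 fold changes.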

log2 fold change, inactive:
SNX16 (UniProt P57768) 0.042
SNAPC5 (UniProt O75971) 0.173
SLC7A6 (UniProt Q92536) 0.042
SOCS2 (UniProt O14508) -0.098
SNX1 (UniProt Q13596) -0.149
SLC8B1 (UniProt Q6J4K2) -0.149
SMS (UniProt P52788) -0.053
SMAD5 (UniProt Q99717) -0.159
SOX7 isoform 2 (UniProt Q9BT81) 0.092
SMARCA1 (UniProt P28370) 0.094
SMARCA2 (UniProt P51531) 0.105
SMG1 (UniProt Q96Q15) 0.059
SMAD4 (UniProt Q13485) 0.009
SMIM15 (UniProt Q7Z3B0) 0.072
SLMAP (UniProt Q14BN4) 0.004
SMARCAD1 isoform 2 (UniProt Q9H4L7) 0.067
SMCR8 (UniProt Q8TEV9) 0.044
SMARCE1 (UniProt Q969G3) -0.181

compound: Cc1cccc(CC(=O)N2CCc3c2ccc(-c2cn(C)c4ncnc(N)c24)c3F)n1; experiment: as above
Method in brief: as §1

log2 fold change, inactive:
SORBS1 isoform 12 (UniProt Q9BX66) -0.117
SORBS3 (UniProt O60504) -0.091
SLCO4A1 (UniProt Q96BD0) -0.019
SON isoform 9 (UniProt P18583) -0.084
SMIM1 (UniProt B2RUZ4) 0.135
SMAP (UniProt O00193) -0.022
SORD (UniProt Q00796) -0.029
SPAG7 (UniProt O75391) -0.048
SMDT1 (UniProt Q9H4I9) 0.006
SMIM20 isoform 2 (UniProt Q8N5G0) -0.011
SMIM8 (UniProt Q96KF7) -0.088
SMPD4 isoform 2 (UniProt Q9NXE4) 0.151
SNX8 (UniProt Q9Y5X2) -0.019
SMARCA4 (UniProt P51532) -0.118
SLC9A1 (UniProt P19634) -0.029
SNX12 isoform 1 (UniProt Q9UMY4) 0.042
SMYD2 (UniProt Q9NRG4) 0.011
SLK isoform 2 (UniProt Q9H2G2) -0.076
SNAP91 (UniProt O60641) 0.134
SLC7A6OS (UniProt Q96CW6) 0.15
SMG9 (UniProt Q9H0W8) -0.078
SNX16 (UniProt P57768) 0.101
SNAPC5 (UniProt O75971) -0.073
SLC7A6 (UniProt Q92536) 0.029
SOCS2 (UniProt O14508) -0.072
SNX1 (UniProt Q13596) 0.146
SLC8B1 (UniProt Q6J4K2) 0.006
SMS (UniProt P52788) -0.04
SMAD5 (UniProt Q99717) 0.136
SOX7 isoform 2 (UniProt Q9BT81) 0
SMARCA1 (UniProt P28370) 0.056
SMARCA2 (UniProt P51531) 0.015
SMG1 (UniProt Q96Q15) -0.012
SMAD4 (UniProt Q13485) -0.041
SMIM15 (UniProt Q7Z3B0) 0.137
SLMAP (UniProt Q14BN4) -0.052
SMARCAD1 isoform 2 (UniProt Q9H4L7) 0.014
SMCR8 (UniProt Q8TEV9) 0.009
SMARCE1 (UniProt Q969G3) 0.041
